# Assay results as given in US20040018558A1.
# No constants are given. Whether binding was seen depends on the method and setting. Some binding calls cover weakened binding; strength is not graded here. For some assays here: Where a sequence is shown, tags or fusion partners need not be part of it.
# T1: human thrombin receptor (PAR1) (human) (UniProt P25116)
# T1 sequence (looked up): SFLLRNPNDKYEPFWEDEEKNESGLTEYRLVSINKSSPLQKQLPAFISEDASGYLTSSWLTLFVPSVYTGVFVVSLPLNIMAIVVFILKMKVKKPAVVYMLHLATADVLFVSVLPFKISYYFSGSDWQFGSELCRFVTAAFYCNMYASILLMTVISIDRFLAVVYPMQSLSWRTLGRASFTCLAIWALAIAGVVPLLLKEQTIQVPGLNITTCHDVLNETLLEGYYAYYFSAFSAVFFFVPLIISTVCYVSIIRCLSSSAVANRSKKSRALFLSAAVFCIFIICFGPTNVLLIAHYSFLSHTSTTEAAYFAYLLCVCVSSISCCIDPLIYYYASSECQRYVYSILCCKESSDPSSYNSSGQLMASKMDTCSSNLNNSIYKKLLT
# Biological target: T1, human thrombin receptor (PAR1) (human)
# Test: LacI display panning of the G13 library, CHO membranes with PAR1
row,Binder,binding
1,"LQDKINHLMLQ (peptide, not shown: small tags and cut ends)",binds
2,"MRAKLNNLMLE (peptide, not shown: small tags and cut ends)",binds

# Results, then the binder that gave them:
row,binding,Binder
1,binds,"LQDNRNQLLF (peptide, not shown: small tags and cut ends)"
2,binds,"LIVKVKQLIWQ (peptide, not shown: small tags and cut ends)"
3,binds,"LQANRKLGMLQ (peptide, not shown: small tags and cut ends)"
4,binds,"LQDNLRHLMLQ (peptide, not shown: small tags and cut ends)"
5,binds,"LQDNLRHLIQ (peptide, not shown: small tags and cut ends)"

# Biological target: T1, human thrombin receptor (PAR1) (human)
# Test: LacI display panning of the G12 library, CHO membranes with PAR1
row,binding,Binder
1,binds,"LEENLKYRMLD (peptide, not shown: small tags and cut ends)"
2,binds,"LKEHLMERMLQ (peptide, not shown: small tags and cut ends)"
3,binds,"LQENLKEMMLQ (peptide, not shown: small tags and cut ends)"
4,binds,"LLGMLEPLMEQ (peptide, not shown: small tags and cut ends)"
5,binds,"LQEDLKGMTLQ (peptide, not shown: small tags and cut ends)"

# Biological target: T1, human thrombin receptor (PAR1) (human)
# Test: ELISA, purified MBP clone on Sf9 membranes with PAR1 or M1 receptor
row,binding,Binder
1,binds,"VRPSLQLNRNEYYLV (peptide, not shown: large carriers) [MBP clone PAR-13]"
2,binds,"LPQMQRLNVGEYNLV (peptide, not shown: large carriers) [MBP clone PAR-34]"

# Biological target: T1, human thrombin receptor (PAR1) (human)
# Test: LacI display panning of the Gt library, CHO membranes with PAR1
row,binding,Binder
1,binds,"ICERLNDCGLC (peptide, not shown: small tags and cut ends)"
2,binds,"RRGNGKDCRHF (peptide, not shown: small tags and cut ends)"
3,binds,"FWGNLQDSGLF (peptide, not shown: small tags and cut ends)"
4,binds,"IRLDLKDVSLF (peptide, not shown: small tags and cut ends)"
5,binds,"IREFLTDCGLF (peptide, not shown: small tags and cut ends)"
6,binds,"PRDNTKVRGLF (peptide, not shown: small tags and cut ends)"
